Drawing on publication PMC9288484, this text covers binding for one molecule.

These are yes or no findings as the source states them, for the method shown. In cells and extracts the contact can be indirect. Some results given as binding are weak or reduced against the parent protein; the word gives no strength. Tags and fused reporters may be left off the sequences shown.

Holding throughout (assay): co-IP; 293T cells co-expressing an HA-tagged and a 3xFlag-tagged protein; Nonidet P-40 lysis buffer (50 mM Tris-Cl pH 8.0, 100 mM NaCl, 1% NP-40); Flag antibody-conjugated beads 2 h at 4 °C, eluted with 3xFlag peptides; immunoblot
In test [1] the target is T1, 3xFlag-tagged human IRGC (immunity related GTPase cinema) expressed in 293T cells (human) (UniProt Q6NXR0).
T1 sequence: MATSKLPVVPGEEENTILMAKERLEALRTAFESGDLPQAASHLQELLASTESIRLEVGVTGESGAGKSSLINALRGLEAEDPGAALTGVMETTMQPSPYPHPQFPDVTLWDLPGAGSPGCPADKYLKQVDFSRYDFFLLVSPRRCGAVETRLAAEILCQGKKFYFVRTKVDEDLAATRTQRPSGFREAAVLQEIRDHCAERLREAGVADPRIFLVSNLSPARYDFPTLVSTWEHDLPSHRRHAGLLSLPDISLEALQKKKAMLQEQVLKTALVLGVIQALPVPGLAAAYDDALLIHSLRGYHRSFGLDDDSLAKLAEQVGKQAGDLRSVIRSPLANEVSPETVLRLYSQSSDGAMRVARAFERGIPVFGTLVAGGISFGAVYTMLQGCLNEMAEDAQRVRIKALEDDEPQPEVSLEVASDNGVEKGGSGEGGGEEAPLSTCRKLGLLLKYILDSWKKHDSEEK

Test [2] has as its target T2, 3xFlag-tagged human IRGM_v1 (longer isoform) expressed in 293T cells (human) (UniProt A1A4Y4).
T2 sequence: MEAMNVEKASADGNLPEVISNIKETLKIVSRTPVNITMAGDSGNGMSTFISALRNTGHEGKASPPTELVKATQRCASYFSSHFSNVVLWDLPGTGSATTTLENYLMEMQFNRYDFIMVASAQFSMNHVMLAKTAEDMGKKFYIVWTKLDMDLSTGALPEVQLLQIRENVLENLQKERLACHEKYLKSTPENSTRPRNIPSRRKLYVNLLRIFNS

The target in test [3] is T3, 3xFlag-tagged human IRGM_v2 (shorter isoform) expressed in 293T cells (human) (UniProt A1A4Y4).
T3 sequence: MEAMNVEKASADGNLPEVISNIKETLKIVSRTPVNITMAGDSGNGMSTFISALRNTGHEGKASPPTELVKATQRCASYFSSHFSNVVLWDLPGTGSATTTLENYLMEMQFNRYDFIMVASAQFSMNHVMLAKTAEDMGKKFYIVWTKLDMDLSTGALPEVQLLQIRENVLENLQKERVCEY

B1: HA-tagged human HSD17B13 expressed in 293T cells (protein, UniProt Q7Z5P4 20-300)
chain: ESLVKFFIPQRRKSVAGEIVLITGAGHGIGRQTTYEFAKRQSILVLWDINKRGVEETAAECRKLGVTAHAYVVDCSNREEIYRSLNQVKKEVGDVTIVVNNAGTVYPADLLSTKDEEITKTFEVNILGHFWITKALLPSMMERNHGHIVTVASVCGHEGIPYLIPYCSSKFAAVGFHRGLTSELQALGKTGIKTSCLCPVFVNTGFTKNPSTRLWPVLETDEVVRSLIDGILTNKKMIFVPSYINIFLRLQKFLPERASAILNRMQNIQFEAVVGHKIKMK
In the case of B1, the values for the binding result in test [1], in test [2] and in test [3] were “binds”, “no binding” and “no binding”, respectively.
